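Luminescence from an EWS-FLI1 target-promoter (NR0B1) reporter, set against a CMV-promoter reporter, two days after silencing single genes in TC32 Ewing sarcoma cells. Each siRNA was applied at 20 nM. A z-score of the log NR0B1-over-CMV signal, less the median of siRNAs with the same seed; more negative means a stronger specific loss of the NR0B1 reporter.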

The strongest results of the screen are mostly left out here. Sequences are the guide (antisense) strand, without overhang.

siRNA	gene	seed-corrected z-score
UUCACUGAAAGUGUAGGCC	FCRLA	-0.7886
UUAAGGACACGUGAGCACC	AK1	0.4738
AAGGCAAUCAGUUCUCGCC	CABLES1	0.4019
AAACUGGUCAAUGUGGUUG	OR11A1	-1.135
UGUAUGUCUAAGGUCAGGC	CCNYL3	-0.2046
UUACCACCAAUUGCGCUUU	DYNLT1	0.3296
AUGGGCAUUACCAAGAUGG	HTR1D	-0.1243
AAACCUACUCAGGUCGUUG	ATP10A	-0.4039
ACAUGGUCCACGAUCUUGC	NXPH4	-0.1952
UGGGAUAUAAUGAGGGUUC	FAM166B	0.3663
UACGUUGUUGGAUGGAGGA	FLJ33360	-0.9255
UCUCUUUCUACUAUGAAUG	ACAD9	1.65
UUCGAAUAAAACACGAACC	ATP9B	-0.06735
UGUCAUUACGGAUAUACCG	CCDC65	0.3646
UCAGUCACUGGGAUAGUUG	RD3L	0.4031
UAUAGCGACACGGUCAGGU	DHRSX	0.296
UUUUCAUCUAUCUCACUUC	MAGEA10	-0.7918
UCUGAGUACAGGAUCAGGG	KIAA2012	-0.8452
AAAAGUGCUAGAUAGAUCC	TTC31	0.312
UCUACAUCCAAAUCUGUGG	NUS1	0.7043
UUAAGGAUCCGUGAGAUGU	PAX4	-0.4593
AGAGUUUUGAUGAACAUGG	ARHGAP1	1.97
UAUGCAAGACGAGGCAUCC	TINCR	0.1246
UUCAUUUACACCAAUACCC	PALMD	0.3857
ACAGUGAAUAGGACUAGUG	OR2AG2	1.733
UGUGAUUUCAAACGGGUUG	TMEM104	0.6858
UGGAGAUCCAUAAUCCACU	TXNL4B	0.5642
UCAAUGCCCAGGGUAUAGA	TRAPPC6A	-0.9189
UGUCUUCUGAAACUCACUC	LZTFL1	-0.6455
AUCCUGAUAAGUCACUAGG	DCBLD1	0.8474
UUUGGAUAUUGCAAUAUAG	COL21A1	0.1284
UCGGUCAUAAGUACAGGCU	ACTRT1	0.2308
UCAGUUUCCUCCGGAAUUC	IL3	-0.1304
AUCGGAAAAGGCACAGAUC	AAR2	0.3951
UCAGACACCAUUGAACUUG	RELT	0.4492
CUUCUGACUGUUGUUCACC	POLR2M	-0.7157
UGAACUUUAAGGCAAACUC	MOSPD1	-0.328
AAACGAUUUACCAAAUCUC	SPZ1	0.995
UACUCUUGCAGAGAGAUCU	SCOC	0.349
UGGAGUCUAAAUAAUCAGG	CMKLR1	-0.9752
UUCGUUUUGGGAUUAAGGC	TBX5	1.019
UUCUUCUUACGAUUAAAUC	PWWP2B	1.07
AUAUGUACAAGAUAGUUUC	SLC18B1	0.7771
AGACGGUUGAUGACAAGGC	CISH	0.4445
UCUGCAAUAAAUAAUAGGU	THRSP	0.1482
UUAGCUCAAAAGGUUUGUC	PCDHB15	-0.1829
UCACGCAUCUGUGCAACAC	AIP	-0.4803
UUCGGAUGGGCAUGGAUCG	RPL26P32	-0.4071
AGACGGGUAAAUAAGAGGC	FLJ45513	-0.09205
UGAUUUGAAAUCGGUGUUC	SCAMP1-AS1	0.4004
UACUGAACCUGGAUGUCGC	BANP	1.389
CUGGUUGCGAUGGUCACUG	CAPN10	-1.029
UACAUGAUCACGCCCACUG	PRKD2	-0.6656
UUAGCUAUUCGCUUAAGUC	UTP11L	0.8473
UCAAUGGAGAAGGACAGGC	ISX	0.4683
UCUGGCUCAGCACUUGUGC	LENG9	-0.4153
UGGUCAUUCGGAUAUAUGG	RBM22	-1.2
AUUGUGCCCAUCUAAAAUG	GOSR2	-0.3715
UUCCGGUCAUAGAUGAUCC	EIF4EBP1	-0.5196
AGCGUUGUCUGUCCAGUUG	CD82	-0.1763
UUUGCGUCACCUCUAAUGC	FBXO18	0.2075
UGCUUUACAUCCUCUAGGG	DHX29	0.7874
UAUCAUAAUAGUCCCGUUG	HNRNPC	-0.8761
UGUAGGCAUAGGUAAGUGC	LOC401220	-1.132
AGAGUUCAUUGUACCAUGC	MMACHC	-0.7022
UGAAUGUGAACUGUGAGGG	WFDC1	1.277
AUGUUUCGGAGUAAAGUUG	FRMPD1	-0.5678
UGUUUGAACGUGAGAGUGC	UNC5CL	-0.2062
UAAUCCCUUAGUUGUCUCC	MOGAT3	0.4548
UGUUAUUUCUUUGAGAUGG	SOST	0.4467

Data taken from PubChem BioAssay AID1159506, deposited by NCATS (2015).